Laboratory results from patent publication US5424185A, “Human high-affinity neurotransmitter uptake system” (Baylor College of Medicine, priority 1990, dated 1995).
Entries after “also recorded” stand apart in the source; their conditions may differ. Where two headings read alike, the source gives them in different places. For at least one compound, name, drawing or mass did not settle the structure. Some compounds share one wording; it may come from a single statement.

Key:
[1] = system: aspartate/glutamate co-transport system (L-Aspl cells); test: D-[3H]aspartate uptake by L-Aspl cells; assay type: cell-based, human
Procedure: Kinetic analyses of D-[^3 H] […] Asp. […] Asp uptake.
The specificity of the high-affinity transport mechanism in L-Aspl cells also was examined. […] Asp.
The high-affinity transport system in L-Aspl cells was also analyzed in terms of its relative sensitivity to compounds specific for various subtypes of excitatory amino acid (EAA) receptors.
A series of known inhibitors of high-affinity D-Asp uptake systems (including L-cysteic acid (L-CA), L-cysteine sulfinic acid (L-CSA), aminophosphonoproprionic acid (APPA) and D-threoaspartic acid (THAA)) were also tested for their effects on D-[^3 H] Asp uptake by L-Aspl cells.

[2] = system: human L-glutamate transporter (L-Glul cells); test: L-[3H]glutamate uptake by L-Glul cells; assay type: cell-based
Procedure: Both L-Glul and L-M cells were assessed for their kinetic properties of [^3 H] Glu uptake, and the results were analyzed by fitting to Michaelis-Menten kinetics. This was done by incubating cells with differing concentrations of [^3 H] Glu (ranging from 0.05 to 2 μM) for 10 minutes, at both 37° C. and 0° C. The amount of [^3 H] Glu retained by the cells following incubation was then quantitated and converted (using the manufacturer's specific activity for [^3 H] Glu to the corresponding picomole-equivalent of the radioligand, for each concentration of radioligand at each temperature. Then, the pmol value is normalized by the length of incubation and the amount of protein corresponding to the number of cells assayed. The resulting value, expressed in units of pmol/min/mg protein, is the initial velocity value for each concentration of [^3 H] Glu at each temperature. The initial velocity measured at 37° C. represents total initial velocity; the initial velocity measured at 0° C. represents nonspecific initial velocity. The difference between these two velocity values is then the specific initial velocity, denoted by "V", for each concentration of [^3 H] Glu.
Various drugs specific for excitatory amino acid (EAA) receptor subtypes were assessed for their effects on [^3 H] Glu uptake by L-Glul cells.
Glu uptake by L-Glul cells.

[3] = system: GABA transporter (L-GAB1 cells); test: [3H]GABA uptake by L-GAB1 cells; assay type: cell-based, human; conditions: competitor at 100-fold excess relative to [3H]GABA
Procedure: Using concentrations of [^3 H] GABA ranging from 2 to 500 μM, the kinetic profile of GABA uptake was determined for both L-GAB1 and L-M cells. The initial velocity of GABA uptake was measured and plotted against the corresponding [^3 H] GABA concentration for both cell lines. […] The velocity profile for L-GAB1 cells was subtracted by that of L-M cells, and the resulting data used for a double-reciprocal plot of velocity-^1 against GABA concentration-^1. The velocity profile for L-M cells was also transformed into a double-reciprocal plot.
Several known inhibitors of high-affinity GABA uptake were used to examine their efficacies in inhibiting [^3 H] GABA uptake by L-GAB1 cells. […] Each of these agents was used at several concentrations ranging from 1 to 100 μM in assays of [^3 H] GABA uptake by L-GAB1 cells. […] GABA uptake by L-GAB1 cells.
L-GAB1 cells were also analyzed in terms of their ligand-specificity in the high-affinity GABA uptake mechanism.

[4] = system: L-M cells; test: L-[3H]glutamate uptake by L-M cells; assay type: cell-based, mouse; conditions: near-millimolar concentrations of [3H]-Glu; read-out: Km of glutamate transport, L-M, low-affinity system

| Structure (SMILES) | effect on D-[3H]Asp uptake by L-Aspl cells [1] | mean Vmax of [3H]Glu uptake, L-Glul ([2]; 0.05 to 2 μM [3H]Glu, 10 min, 37° C. minus 0° C.) [pmol/min/mg] | Km ([2]; 0.05 to 2 μM [3H]Glu, 10 min, 37° C. minus 0° C., read-out: mean Km of [3H]Glu uptake, L-Glul) [µM] | Km ([2]; near-millimolar concentrations of [3H]-Glu, read-out: Km of glutamate transport, L-Glul, low-affinity system) [µM] | effect on [3H]Glu uptake by L-Glul cells ([2]; unlabelled neurotransmitters, EAA receptor ligands, co-transporter inhibitors) | ligand-specificity of [3H]GABA uptake by L-GAB1 cells [3] | Km [4] [µM] |
| --- | --- | --- | --- | --- | --- | --- | --- |
| N[C@@H](CCC(=O)O)C(=O)O [L-glutamate] | inhibited | 22.8 | 2.1 | > 1000 | some inhibition | somewhat sensitive; also recorded: almost complete inhibition | > 1000 |
| N[C@H](CCC(=O)O)C(=O)O [D-glutamate] | but not D-glutamate | – | – | – | – | somewhat sensitive | – |
